Some of the results follow.
Tested on: T1, CTL2-GFP (C. trachomatis L2/434/Bu, GFP-expressing)
T1 construct: L2/434/Bu, GFP-expressing
Set-up: species or system HeLa; Intracellular C. trachomatis growth in HeLa cells, bulk GFP fluorescence relative to DMSO
Details: bulk GFP, single well; 28.5 h, 10 µM; inhibitor

| Compound | % of control remaining |
| --- | --- |
| CCN(CC)CC/N=C1/CCCc2ccccc2N1 [CBK263520] | 100% |
| CCn1cc(NC(=O)CCn2c(C(F)F)cc3cccnc32)cn1 [CBK282769] | 94.9867% |
| COc1ccc(CCNC(=O)C2CCCN(S(=O)(=O)c3ccc4ccccc4c3)C2)cc1 (centres unmarked) [CBK269601] | 127.65% |
| COc1ccc(Cl)cc1N1CCN(CCCCC2NC(=O)NC2=O)CC1 (centres unmarked) [CBK126448] | 105.125% |
| Cc1n[nH]cc1CN(CCCn1ccnc1)Cc1cccc(F)c1 [CBK282650] | 113.477% |
| O=C(c1ccc2occc2c1)N1CCCC2(CCN(Cc3ccccc3)C2)C1 (centres unmarked) [CBK136882] | 96.4813% |
| CCNC(=S)NNC(=O)CCn1c2ccccc2c2ccccc21 [CBK262564] | 100% |
| CS(=O)(=O)N1CC2(CCN(C(=O)N(CCN)CCc3ccc(Cl)cc3)CC2)c2ccccc21 [CBK001687C] | 79.1481% |
| O=C(NCCc1c[nH]c2ccccc12)c1cc2c(ccc3ccccc32)oc1=O [CBK264550] | 100% |
| Cn1cc(Nc2nc(-c3ccc4c(c3)CCCN4S(C)(=O)=O)cs2)cn1 [CBK306236] | 87.7917% |
| Cc1cc(NS(=O)(=O)c2cccc3nsnc23)n(C)n1 [CBK067246] | 142.369% |
| O=C(c1ccc2[nH]ccc2c1)N1CCN(c2ncccn2)CC1 [CBK144500] | 91.2075% |
| O=C(Nc1ccc(OC(F)F)cc1)Nc1c(Br)cnc2cccnc12 [CBK107632] | 124.01% |
| O=C(Cc1ccc(NS(=O)(=O)c2cc(Cl)c(Cl)s2)nc1)N1CCOCC1 [CBK003790] | 117.39% |
| Oc1cccc(OCCOc2nc3cc(Cl)c(Cl)cc3nc2N2CCCC2)c1 [CBK115778] | 88.4532% |
| Cc1nc2c(c(=O)[nH]1)CCN(C(=O)c1cc(C3CC3)oc1C)C2 [CBK283753] | 106.594% |
| CCOc1ccc(-c2c3c(c(-c4ccccc4)n2-c2ccc(N)cc2)C(=O)c2ccccc2C3=O)cc1 [CBK262685] | 100.67% |
| CCN1CCN(C(=O)CN(C)S(=O)(=O)c2ccc(OC)c(C)c2)CC1 [CBK268880] | 76.0834% |
| CCc1nn(CC(=O)NC2CCCC2)c(=O)c2cc3sccc3n12 [CBK284077] | 126.597% |
| O=C(O)CC(NC(=O)C(c1ccccc1)c1ccccc1)c1ccco1 (centres unmarked) [CBK268729] | 142.805% |
| Cc1cccc(/C=C2/SC(=S)N(CC(=O)O)C2=O)n1 [CBK265146] | 131.32% |
| COc1ccccc1N1CCN(C2CCN(Cc3ccc([N+](=O)[O-])cc3)CC2)CC1 [CBK264734G] | 108.441% |
| Cc1n[nH]c(C)c1Sc1ccccc1/N=C/c1ccc([N+](=O)[O-])cc1 [CBK262045] | 100% |
| COc1ccc(C2C(C(=O)c3ccccc3)=C(O)C(=O)N2CCN(C)C)cc1OC (centres unmarked) [CBK263352] | 103.082% |
| CCC(CC)C(=O)N1CCN(Cc2ccccc2)CCC1=O [CBK284830] | 115.688% |
| COc1ccc2c(c1)OC1(CCN(C(=O)C3CCCC3)CC1)CC2O (centres unmarked) [CBK286400] | 125.77% |
| O=C(CN1C(=O)COc2ccccc21)NC1CC1 [CBK270261] | 143.027% |

| Compound | % of control remaining |
| --- | --- |
| CCC(C)(NC(=O)c1ccn(-c2cc(C)ccc2OC)n1)C(=O)OC (centres unmarked) [CBK305282] | 115.064% |
| Clc1cccc(Nc2nc(Br)cn3ccnc23)c1 [CBK066260] | 88.2311% |
| CCC(=O)NC1Cc2cccc3c2N(CCC3)C1=O (centres unmarked) [CBK010667] | 74.7448% |
| CSCCC(=O)N1CCN(c2ncccn2)CC1 [CBK144509] | 109.598% |
| COc1ccccc1OCc1cc(C)c(C(=O)N2CCN(C)CC2c2ccccc2)o1 (centres unmarked) [CBK286273] | 102.237% |
| Clc1ccccc1OCCNC1CCc2[nH]c3ccccc3c2C1 (centres unmarked) [CBK107790] | 106.311% |
| COc1ccc(NC(=O)CSc2cnn[nH]2)cc1OC [CBK270010] | 73.8589% |
| O=C(NC(c1ccc2c(c1)CCO2)[C@H]1C[C@@H](O)C1)c1c[nH]c(=O)c(Cl)c1 (some centres unmarked) [CBK306634] | 137.42% |
| CCN1CC2(CCC1=O)CCN(Cc1cccc(C(C)N(C)C)c1)CC2 (centres unmarked) [CBK307250] | 96.2205% |
| CN(Cc1nc2c(s1)CCCC2)C(=O)COc1ccc2nncn2n1 [CBK306758] | 85.3195% |
| O=C(O)CCc1ccc(-c2ccc(F)cc2)n1Cc1ccco1 [CBK265953] | 100% |
| COc1ccc2c(-c3ccccc3)cc(=O)n(CCS(=O)(=O)Oc3ccccc3)c2c1 [CBK296621] | 119.456% |
| Cc1ccc(-c2nc3ncccc3o2)cc1NC(=O)c1ccc(F)cc1 [CBK263043] | 106.707% |
| COc1ccc(Nc2ncnc3c2c(C)c(C)n3CCO)cc1 [CBK288161] | 120.134% |
| Cn1cc(-c2nccnc2OCCn2cccc2)cn1 [CBK107079] | 100% |
| O=C(NCCO)C1CCCN(S(=O)(=O)c2ccc3ccccc3c2)C1 (centres unmarked) [CBK270090] | 108.142% |
| CN(C)C(c1ccccc1)c1nnnn1C1CCCCC1 (centres unmarked) [CBK028032] | 102.464% |
| Fc1ccc(OCCN2CCC3(C2)OCCc2c3[nH]c3ccccc23)cc1 (centres unmarked) [CBK061787] | 100.782% |
| C(=N\n1cnnc1)/c1ccccc1OCc1cccc2ccccc12 [CBK263864] | 145.842% |
| COc1cc(-c2ccc(/N=C/c3ccccc3O)c(OC)c2)ccc1/N=C/c1ccccc1O [CBK261089] | 100% |
| O=C(CN1C(=O)c2ccccc2C1=O)NCc1ccc(C(=O)O)cc1 [CBK262795] | 100% |
| Cc1cccc(NC(=O)NCc2ccccn2)c1 [CBK269422] | 128.989% |
| CC(CCN(C)CCN(C)C)c1ccccc1 (centres unmarked) [CBK261871] | 120.768% |
| COc1ccc(CN2C(=O)CC(C(=O)O)S/C2=N\c2ccc(Cl)cc2)cc1 (centres unmarked) [CBK287259] | 122.416% |
| COc1ccccc1C1(CCNCc2ccc3c(c2)OCO3)CCOC(C)(C)C1 (centres unmarked) [CBK265599G] | 106.717% |
| CCN1CCCCC1CNC(=O)Cn1nc(C)c(C)c1C (centres unmarked) [CBK282208] | 125.503% |
| CN1C[C@@H](NS(=O)(=O)c2ccc(C#N)cc2)C[C@H]1c1nc(-c2ccncc2)no1 [CBK288871] | 108.315% |

| Compound | % of control remaining |
| --- | --- |
| C=C(C)CN1CCN(C(=O)CSc2nccc3ccccc23)CC1 [CBK282712] | 145.007% |
| O=C(NC1CCCC1)c1ccc2ncccc2c1 [CBK200118] | 115.43% |
| CN1CCN(C(=O)c2ccc3nc(-c4ccccc4)c(-c4ccccc4)nc3c2)CC1 [CBK267257] | 102.835% |
| O=C(CN1CCCC1c1ccc(Nc2ccc(F)cn2)cn1)Nc1ccc(F)cc1 (centres unmarked) [CBK285941] | 85.8678% |
| Cn1cc(CN2CCOC(c3nc(C(C)(C)C)cs3)C2)nn1 (centres unmarked) [CBK304783] | 117.103% |
| Cc1cc(C(=O)Nc2nncs2)c2ccc(F)cc2n1 [CBK297738] | 130.36% |
| Cc1nc(C)n(CC2CCCN(Cc3nc4ccccc4o3)C2)n1 (centres unmarked) [CBK305828] | 118.131% |
| COc1ccc(NC(=O)CS(=O)(=O)Cc2ccccc2)c([N+](=O)[O-])c1 [CBK266748] | 127.584% |
| Cc1cc(C)n(C(C)CNC(=O)C(C)n2ccnc2)n1 (centres unmarked) [CBK282049] | 101.821% |
| O=C(c1cscn1)N1CCC(Cc2ccccc2)CC1 [CBK200188] | 58.339% |
| CCc1cc(C(=O)NC(CCn2ccnc2)c2ccccc2)cc(=O)[nH]1 (centres unmarked) [CBK306679] | 107.715% |
| N=c1n(CC(=O)c2ccc(-c3ccccc3)cc2)c2ccccc2n1Cc1ccccc1 [CBK262128B] | 95.7583% |
| O=C(CSc1nc2ccccc2nc1N1CCCC1)N1CCN(c2ccccc2)CC1 [CBK293977] | 154.058% |
| CC(=O)c1ccc(N2CCN(S(=O)(=O)c3ccc(O)c(C(=O)O)c3)CC2)cc1 [CBK296961] | 143.998% |
| Cc1cc(-c2nnc(NCc3ccnn3C)o2)c(C)o1 [CBK306446] | 117.849% |
| O=C(O)c1ccc2c(c1)c(C(C(=O)O)N1CCCC1)cn2Cc1ccccc1 (centres unmarked) [CBK286633] | 88.4183% |
| COc1ccc(CN2CCC(N3CCN(c4ccccc4F)CC3)CC2)cc1OCc1ccccc1 [CBK264720G] | 127.117% |
| O=C1C[C@H]2[C@H](CC3(SCCS3)[C@@H]2CO)O1 [CBK006615] | 122.872% |
| CC1=C[C@@H](CO)[C@H](C(C)C)C[C@H]1Cc1nnc(Cc2c[nH]c3ccccc23)o1 [CBK289223] | 117.949% |
| Fc1cc(Br)ccc1COc1cccnc1Cl [CBK161281] | 119.736% |
| NC1=C2NN(c3ccc(Cl)cc3Cl)N=C2N(c2ccccc2)N1 [CBK107773] | 61.8957% |
| Fc1cccc(-c2nccnc2NCCc2ccncc2)c1 [CBK036763] | 171.914% |
| CC(C)[C@H](NC(=O)c1cc2cc(Cl)ccc2n1C)C(=O)N1CCC(C(=O)O)CC1 [CBK286771] | 102.119% |
| CCC1CCCCN1S(=O)(=O)c1cccc2c(S(=O)(=O)N3CCCCC3CC)cccc12 (centres unmarked) [CBK262073] | 119.28% |
| O=C1Nc2ccc(Br)cc2C(=O)N2CCNC[C@H]12 [CBK289583] | 140.971% |
| CCOC(=O)CN1CCCN(c2ccnc(OC3CCCCC3)n2)CC1 [CBK083864] | 129.233% |

2 records drawn at random from the list so far, as already listed:

| Compound | % of control remaining |
| --- | --- |
| O=C(O)c1ccc2c(c1)c(C(C(=O)O)N1CCCC1)cn2Cc1ccccc1 (centres unmarked) [CBK286633] | 88.4183% |
| Fc1cccc(-c2nccnc2NCCc2ccncc2)c1 [CBK036763] | 171.914% |

Three structures out of the list, ordered by formula weight, low to high:

| Compound | % of control remaining |
| --- | --- |
| Cn1cc(CN2CCOC(c3nc(C(C)(C)C)cs3)C2)nn1 (centres unmarked) [CBK304783] | 117.103% |
| C=C(C)CN1CCN(C(=O)CSc2nccc3ccccc23)CC1 [CBK282712] | 145.007% |
| O=C(CN1CCCC1c1ccc(Nc2ccc(F)cn2)cn1)Nc1ccc(F)cc1 (centres unmarked) [CBK285941] | 85.8678% |

From publication PMC12040169 (PLOS Biology, 2025)
